PubChem BioAssay AID743121 – NCATS | 2013

Purpose: 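Partners whose loss is lethal together with topoisomerase I blockade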 (primary screen)
Cells: MDA-MB-231 cells, a human breast cancer line
Reagent: single siRNA against human genes, 20 nM siRNA (0.8 pmol per well)
Duration: 120 h (drug added 48 h after transfection, read 72 h later)
Treatment: camptothecin 20 nM (about EC30) for 72 h; vehicle 0.1% DMSO in parallel plates
Read-out: 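CellTiter-Glo ATP signal, scaled to control siRNA as percent viability; sensitisation given as log2 of untreated divided by camptothecin-treated viability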
Scale: log2 vehicle/camptothecin viability: higher = stronger sensitisation to camptothecin; viability with camptothecin and viability without drug: higher = more viable cells
Rule for the call: 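Each gene scored by redundant siRNA activity (RSA) over its individual siRNA ratios; a gene is called active at p < 0.001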
In all, the deposit lists about 26,000 reagents; shown is a part drawn at random. In the full data, 167 (0.63%) were called active. 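Calls are per gene from RSA p-values that are not deposited; an individual active-marked siRNA can sensitise only weakly.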 Reagents against one gene are numbered here. Reagent sequences are not shown.

| Target gene | siRNA no. | log2 vehicle/camptothecin viability | viability with camptothecin (% of control) | viability without drug (% of control) | Call |
| --- | --- | --- | --- | --- | --- |
| ETNK2 (ethanolamine kinase 2) | 1 | -0.522 | 78.3 | 54.5 | inactive |
| ETNK2 (ethanolamine kinase 2) | 2 | 0.166 | 76.4 | 85.8 | inactive |
| ETNK2 (ethanolamine kinase 2) | 3 | 0.194 | 61.5 | 70.4 | inactive |
| ETNK2 (ethanolamine kinase 2) | 4 | -0.469 | 118 | 85 | inactive |
| KCNC4 (potassium voltage-gated channel subfamily C member 4) | 1 | -0.355 | 85.4 | 66.8 | inactive |
| KCNC4 (potassium voltage-gated channel subfamily C member 4) | 2 | 0.00219 | 60.8 | 60.9 | inactive |
| KCNC4 (potassium voltage-gated channel subfamily C member 4) | 3 | 0.0419 | 18.9 | 19.5 | inactive |
| ATPSCKMT (ATP synthase c subunit lysine N-methyltransferase) | 1 | -0.0135 | 12.1 | 12 | inactive |
| ATPSCKMT (ATP synthase c subunit lysine N-methyltransferase) | 2 | 0.163 | 49.4 | 55.3 | inactive |
| ATPSCKMT (ATP synthase c subunit lysine N-methyltransferase) | 3 | -0.235 | 63.8 | 54.2 | inactive |
| SYNJ1 (synaptojanin 1) | 1 | -0.195 | 103 | 89.9 | inactive |
| SYNJ1 (synaptojanin 1) | 2 | -0.0866 | 28.2 | 26.5 | inactive |
| SYNJ1 (synaptojanin 1) | 3 | 0.22 | 80.2 | 93.5 | inactive |
| SYNJ1 (synaptojanin 1) | 4 | 0.514 | 23.1 | 33 | inactive |
| GDF10 (growth differentiation factor 10) | 1 | -0.206 | 50 | 43.4 | inactive |
| GDF10 (growth differentiation factor 10) | 2 | -0.484 | 94 | 67.2 | inactive |
| GDF10 (growth differentiation factor 10) | 3 | -0.121 | 104 | 95.2 | inactive |
| GDF10 (growth differentiation factor 10) | 4 | -0.158 | 91 | 81.5 | inactive |
| NEK2 (NIMA related kinase 2) | 1 | -0.49 | 76.3 | 54.3 | inactive |
| NEK2 (NIMA related kinase 2) | 2 | -0.239 | 113 | 95.8 | inactive |
| NEK2 (NIMA related kinase 2) | 3 | -0.415 | 101 | 76 | inactive |
| NEK2 (NIMA related kinase 2) | 4 | 0.143 | 54.4 | 60.1 | inactive |
| HOMER1 (homer scaffold protein 1) | 1 | -0.386 | 66.7 | 51.1 | inactive |
| HOMER1 (homer scaffold protein 1) | 2 | -0.439 | 89.8 | 66.3 | inactive |
| HOMER1 (homer scaffold protein 1) | 3 | 0.162 | 45.2 | 50.6 | inactive |
| HOMER1 (homer scaffold protein 1) | 4 | -0.295 | 78.1 | 63.6 | inactive |
| CETP (cholesteryl ester transfer protein) | 1 | -0.343 | 101 | 79.8 | inactive |
| CETP (cholesteryl ester transfer protein) | 2 | 0.288 | 26.9 | 32.8 | inactive |
| CETP (cholesteryl ester transfer protein) | 3 | 0.341 | 15.1 | 19.2 | inactive |
| CETP (cholesteryl ester transfer protein) | 4 | -0.49 | 50 | 35.6 | inactive |

Only “viability without drug (% of control)”, for 2 of the entries above:
HOMER1 (homer scaffold protein 1) #4	63.6
CETP (cholesteryl ester transfer protein) #1	79.8
